No constants are given. Whether binding was seen depends on the method and setting. Binding can be weak; no strength is given.
Target: bovine brain tubulin (bovine)
Experiment: SEC; 128 µM αB crystallin and 16 µM tubulin in 20 mM tris-HCl, 160 µM MgCl2, 40 µM EGTA, pH 8.0; heated at 37°C for 30 minutes, cooled at 4°C for 10 minutes; Biosep SEC-S4000, eluted in 20 mM tris-Cl pH 8.0 at 4°C; peak fractions on SDS-PAGE (Coomassie); no GTP or glycerol (non-assembly conditions); both purified

binding: binds
B1: human αB crystallin (natural protein, UniProt P02511 1-175, looked up)
chain: MDIAIHHPWIRRPFFPFHSPSRLFDQFFGEHLLESDLFPTSTSLSPFYLRPPSFLRAPSWFDTGLSEMRLEKDRFSVNLDVKHFSPEELKVKVLGDVIEVHGKHEERQDEHGFISREFHRKYRIPADVDPLTITSSLSSDGVLTVNGPRKQVSGPERTIPITREEKPAVTAAPKK
notes: human αB crystallin, expressed from a human αB crystallin pET16b plasmid; 20 kDa on SDS-PAGE; Polydisperse complex; pET16b can add an N-terminal His tag, but purification was by anion exchange and SEC, so the protein is probably untagged (surmise); also called small heat shock protein (sHSP); source: E. coli BL21 (DE3), purified (Q Sepharose Fast Flow, Superdex 200); copies: 24

From paper PMC2909917, “Dynamic Subunit Exchange and the Regulation of Microtubule Assembly by the Stress Response Protein Human αB Crystallin” (PLoS ONE, 2010)
